In the supplement of paper PMC12542422:
Where a name gives a salt, the structure may show the parent alone. ± gives the standard deviation of the averaged measurements. Some of the results follow. These are raw signals, not scaled to a control.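 Ribosome-assembly readouts in HeLa cells were imaged via ENP1 staining, with or without export block, or inducible tagged ribosomal protein reporters. Machine learning classified per-cell signal location versus solvent (DMSO) controls. Hits surpassed the DMSO false-positive mean by five standard deviations and were visually confirmed; three biological replicates.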

Tests used:
[1] = tested on: HeLa K (ENP1 immunofluorescence, +LMB); assay: fraction of cells with nucleolar or nucleolar/nucleoplasmic ENP1 signal (MainHitrate); higher = more cells with nucleolar/nuclear readout signal (for ENP1 -LMB: less RNAPI inhibition; for +LMB ENP1 and RP reporters: stronger nuclear/nucleolar retention, i.e. ribosome biogenesis defect); details: concentration: 1 µM; treatment time: 6 h; ENP1 +LMB; leptomycin B: 20 nM, last 1.5 h
[2] = tested on: HeLa K (ENP1 immunofluorescence, no LMB); assay: as above; details: concentration: 1 µM; treatment time: 6 h; ENP1 -LMB; leptomycin B: none
HeLa RPS2-YFP reporter = assay: fraction of reporter-positive cells with nuclear (nucleolar or nucleolar/nucleoplasmic) RPS2-YFP (MainHitrate); higher = more cells with nucleolar/nuclear readout signal (for ENP1 -LMB: less RNAPI inhibition; for +LMB ENP1 and RP reporters: stronger nuclear/nucleolar retention, i.e. ribosome biogenesis defect); details: concentration: 1 µM; treatment time: 6 h
HeLa RPL29-GFP reporter = assay: fraction of reporter-positive cells with nuclear (nucleolar or nucleolar/nucleoplasmic) RPL29-GFP (MainHitrate); higher = more cells with nucleolar/nuclear readout signal (for ENP1 -LMB: less RNAPI inhibition; for +LMB ENP1 and RP reporters: stronger nuclear/nucleolar retention, i.e. ribosome biogenesis defect); details: concentration: 1 µM; treatment time: 6 h

| SMILES | fraction [1] | fraction [2] | fraction of reporter-positive cells with nuclear (HeLa RPS2-YFP reporter) | fraction of reporter-positive cells with nuclear (HeLa RPL29-GFP reporter) |
| --- | --- | --- | --- | --- |
| CCCSc1ccc2[nH]c(NC(=O)OC)nc2c1 [Albendazole (Albenza)] | 0.102 ± 0.11 | 0.9947 ± 0.0092 | 0.154 ± 0.092 | 0.262 ± 0.094 |
| COc1cccc2c1C(=O)c1c(O)c3c(c(O)c1C2=O)C[C@@](O)(C(C)=O)C[C@@H]3O[C@H]1C[C@H](N)[C@H](O)[C@H](C)O1 [Daunorubicin HCl (Daunomycin HCl)] | 0.0505 ± 0.083 | 0.67 ± 0.57 | 0.066 ± 0.04 | 0.702 ± 0.44 |
| O=C(O)c1ccc(NC(=O)[C@H](Cc2ccc(O)cc2)NC(=O)c2ccccc2)cc1 [Bentiromide] | 0.135 ± 0.16 | 0.9991 ± 0.0015 | 0.133 ± 0.11 | 0.29 ± 0.25 |
| CNC[C@H](O)[C@@H](O)[C@H](O)[C@H](O)CO [Meglumine] | 0.0659 ± 0.079 | 0.992 ± 0.014 | 0.0942 ± 0.081 | 0.227 ± 0.079 |
| CC(C)(OCc1nn(Cc2ccccc2)c2ccccc12)C(=O)O [Bindarit] | 0.0723 ± 0.088 | 0.984 ± 0.027 | 0.116 ± 0.07 | 0.19 ± 0.019 |
| CN1CCN(C2=Nc3ccccc3Oc3ccc(Cl)cc32)CC1 [Loxapine Succinate] | 0.0535 ± 0.07 | 0.99 ± 0.018 | 0.117 ± 0.083 | 0.225 ± 0.06 |
| CCN[C@H]1CN(CCCOC)S(=O)(=O)c2sc(S(N)(=O)=O)cc21 [Brinzolamide] | 0.18 ± 0.29 | 0.979 ± 0.037 | 0.122 ± 0.12 | 0.209 ± 0.075 |
| CC(O)(P(=O)(O)O)P(=O)(O)O [Etidronate (Didronel)] | 0.0982 ± 0.14 | 0.991 ± 0.016 | 0.0908 ± 0.048 | 0.234 ± 0.076 |
| CC(C)[C@H](N)C(=O)OCC(CO)OCn1cnc2c(=O)nc(N)[nH]c21 (some centres not stated) [valganciclovir hydrochloride] | 0.059 ± 0.07 | 0.994 ± 0.01 | 0.101 ± 0.069 | 0.218 ± 0.032 |
| CO/N=C(\C(=O)N[C@@H]1C(=O)N2C(C(=O)O)=C(Cn3ccc(=N)n3CCO)CS[C@H]12)c1csc(N)n1 [Cefoselis sulfate] | 0.094 ± 0.08 | 0.9981 ± 0.0033 | 0.122 ± 0.084 | 0.211 ± 0.084 |
| C[C@]12C=CC(=O)N[C@@H]1CC[C@@H]1[C@@H]2CC[C@]2(C)[C@@H](C(=O)Nc3cc(C(F)(F)F)ccc3C(F)(F)F)CC[C@@H]12 [Dutasteride] | 0.0446 ± 0.036 | 0.997 ± 0.0053 | 0.104 ± 0.057 | 0.194 ± 0.07 |
| COc1ccc(C(=O)CC(=O)c2ccc(C(C)(C)C)cc2)cc1 [Avobenzone (Parsol 1789)] | 0.18 ± 0.28 | 0.987 ± 0.023 | 0.114 ± 0.065 | 0.227 ± 0.092 |
| Nc1ncnc2c1ncn2[C@@H]1O[C@H](CO)[C@@H](O)[C@H]1O [Adenosine (Adenocard)] | 0.113 ± 0.13 | 0.9987 ± 0.0022 | 0.11 ± 0.058 | 0.218 ± 0.073 |
| COCCc1ccc(OCC(O)CNC(C)C)cc1 (configuration not stated) [Metoprolol tartrate] | 0.0725 ± 0.092 | 0.993 ± 0.012 | 0.109 ± 0.066 | 0.219 ± 0.088 |
| O=C([O-])c1ccccc1O.[Na+] [Sodium salicylate] | 0.136 ± 0.2 | 0.9948 ± 0.0091 | 0.115 ± 0.071 | 0.207 ± 0.076 |
| CCC(CC)[C@H](NC(C)=O)[C@@H]1[C@H](O)[C@@H](C(=O)O)C[C@H]1NC(=N)N [Peramivir Trihydrate] | 0.15 ± 0.17 | 0.976 ± 0.041 | 0.113 ± 0.079 | 0.208 ± 0.061 |
| O=C(N/N=C/c1ccc([N+](=O)[O-])o1)c1ccc(O)cc1 [Nifuroxazide] | 0.0616 ± 0.085 | 0.98 ± 0.034 | 0.119 ± 0.1 | 0.212 ± 0.088 |
| CC[N+](CC)(CC)CCOc1cccc(OCC[N+](CC)(CC)CC)c1OCC[N+](CC)(CC)CC [Gallamine triethiodide (Flaxedil)] | 0.0803 ± 0.11 | 0.9972 ± 0.0048 | 0.0814 ± 0.034 | 0.225 ± 0.034 |
| CC(=O)OCC(=O)[C@@]12OC(C)(C)O[C@@H]1C[C@H]1[C@@H]3C[C@H](F)C4=CC(=O)C=C[C@]4(C)[C@@]3(F)[C@@H](O)C[C@@]12C [Fluocinonide (Vanos)] | 0.0654 ± 0.084 | 0.979 ± 0.036 | 0.171 ± 0.077 | 0.242 ± 0.023 |
| C=C1/C(=C\C=C2/CCC[C@]3(C)[C@@H]([C@H](C)CCCC(C)(C)O)CC[C@@H]23)C[C@@H](O)C[C@@H]1O [Calcitriol (Rocaltrol)] | 0.067 ± 0.027 | 0.9987 ± 0.0022 | 0.0996 ± 0.076 | 0.212 ± 0.041 |
| CCCN1CCCC[C@H]1C(=O)Nc1c(C)cccc1C [Ropivacaine HCl] | 0.0453 ± 0.052 | 0.9961 ± 0.0067 | 0.12 ± 0.094 | 0.227 ± 0.051 |
| C=C1CC[C@H](O)C/C1=C/C=C1\CCC[C@]2(C)[C@@H]([C@H](C)/C=C/[C@H](C)C(C)C)CC[C@@H]12 [Vitamin D2] | 0.0442 ± 0.051 | 0.987 ± 0.022 | 0.108 ± 0.1 | 0.201 ± 0.019 |
| Cn1c(CNc2ccc(C(=N)N)cc2)nc2cc(C(=O)N(CCC(=O)O)c3ccccn3)ccc21 [BIBR 953 (Dabigatran etexilate, Pradaxa)] | 0.133 ± 0.19 | 0.99 ± 0.017 | 0.102 ± 0.086 | 0.239 ± 0.088 |

Record cards, from the list above. Order of values: fraction [1]	fraction [2]	fraction of reporter-positive cells with nuclear (HeLa RPS2-YFP reporter)	fraction of reporter-positive cells with nuclear (HeLa RPL29-GFP reporter)
`CC[N+](CC)(CC)CCOc1cccc(OCC[N+](CC)(CC)CC)c1OCC[N+](CC)(CC)CC` [Gallamine triethiodide (Flaxedil)] reads 0.0803 ± 0.11	0.9972 ± 0.0048	0.0814 ± 0.034	0.225 ± 0.034
`CNC[C@H](O)[C@@H](O)[C@H](O)[C@H](O)CO` [Meglumine] reads 0.0659 ± 0.079	0.992 ± 0.014	0.0942 ± 0.081	0.227 ± 0.079
